Source: patent US7666981
These are yes or no findings as the source states them, for the method shown. A result given as binding can be weak or reduced; the word gives no strength.

How the values were obtained:
[1] = molecular target: thrombin; assay: complex formation with heparin, western blot (FIG. 6B legend)
[2] = molecular target: thrombin; assay: complex formation at different pH, western blot (FIG. 6A); complex somewhat decreased with increasing pH

B1: mouse prostasin-binding protein (mPBP) purified from mouse seminal vesicle fluid (protein, UniProt Q07235 20-397, looked up)
chain: SQFNSLSLEELGSNTGIQVFNQIIKSRPHENVVVSPHGIASILGMLQLGADGKTKKQLSTVMRYNVNGVGKVLKKINKAIVSKKNKDIVTVANAVFLRNGFKMEVPFAVRNKDVFQCEVQNVNFQDPASASESINFWVKNETRGMIDNLLSPNLIDGALTRLVLVNAVYFKGLWKSRFQPESTKKRTFVAGDGKSYQVPMLAQLSVFRSGSTRTPNGLWYNFIELPYHGESISMLIALPTESSTPLSAIIPHITTKTIDSWMNTMVPKRMQLVLPKFTAVAQTDLKEPLKALGITEMFEPSKANFTKITRSESLHVSHILQKAKIEVSEDGTKASAATTAILIARSSPPWFIVDRPFLFSIRHNPTGAILFLGQVNKP
Which binding [1] does the source give for B1 here?
Its binding is “binds”.

What about the binding [2] of the same binder?
The binding was “binds”.
